Results from publication PMC7819943, “Rice protein-binding microarrays: a tool to detect cis-acting elements near promoter regions in rice”.
The list shows a part of the results.

Chains of the proteins cited; added tags and fusions are not shown.
UniProt Q0JBA9, entry or part of it: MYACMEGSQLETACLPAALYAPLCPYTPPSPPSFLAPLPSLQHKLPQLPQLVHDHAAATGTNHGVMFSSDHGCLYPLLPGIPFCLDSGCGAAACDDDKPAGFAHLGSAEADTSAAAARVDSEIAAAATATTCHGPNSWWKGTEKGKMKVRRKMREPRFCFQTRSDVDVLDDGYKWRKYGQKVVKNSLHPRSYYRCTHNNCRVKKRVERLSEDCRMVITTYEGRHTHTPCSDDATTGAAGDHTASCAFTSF

The sequences below were run against OsWRKY34 (Oryza sativa, UniProt Q0JBA9 1-250) (assay: protein-binding microarray (RPBM); PBS, 2% BSA, 51.3 ng/ul salmon testes DNA, 50 uM zinc acetate, 200 nM TF, 25 C, 1 h; high values mean tight binding). Conditions: protein: recombinant; tags: N-terminal polyhistidine and DsRed monomer fusion (pET32a); label: CyDye5-dUTP incorporated in the synthesized complementary strand; 3' TTTTT single-stranded linker to array surface; dsDNA, one strand shown.
Summary of the method: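 A custom Agilent array was converted to double-stranded form by primer extension with Cy5-dUTP and blocked with 2% BSA. Protein at 200 nM in PBS with 2% BSA, salmon testes DNA and 50 µM zinc acetate was applied for 1 h at 25 °C, followed by washing. The proteins were polyhistidine–DsRed N-terminal fusions of transcription factors, expressed in E. coli BL21-CodonPlus and Ni–NTA-purified. The binding signal is per-feature fluorescence intensity (arbitrary units) from an Axon 4000B scanner.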

Sequence	binding signal
TTTTAATGTATGACGCTGTTGACTTTTTATCCAACGTTTGCGGAGTCACCTAGTGCAG	16400 fluorescence intensity (a.u.)
GATTGTTCGCTCCTTTCTTGGCGGCTGGTATTCACATCGACGGAGTCACCTAGTGCAG	9480 fluorescence intensity (a.u.)
GAATGGTCTCTTTAATTTTATTGCTGATGCTGATTAATCTCGGAGTCACCTAGTGCAG	8970 fluorescence intensity (a.u.)
TCTACCCTCAACCAACCTGCTTCTCCATCAGTTAATTATGCGGAGTCACCTAGTGCAG	11500 fluorescence intensity (a.u.)
AGCTTGGTTTCTGGGTTGGGTTGGGTTTGGTTGCGTTGCGCGGAGTCACCTAGTGCAG	22700 fluorescence intensity (a.u.)
CAGCTTTATCTTTTCGTGTATGTTTATACTTATCAGTAAACGGAGTCACCTAGTGCAG	9130 fluorescence intensity (a.u.)
CTCCAGCTTCAACTCTCCTATAGCTAGAGTCCAACCAAATCGGAGTCACCTAGTGCAG	8120 fluorescence intensity (a.u.)
ACAAGGCGACAACCCTTCTCAGCGCTCCCTGTCCTAGTCACGGAGTCACCTAGTGCAG	8810 fluorescence intensity (a.u.)
TTTTTTCTCTTTTTTTTCTTTCTTTTTCCTCTCTTCTTTTCGGAGTCACCTAGTGCAG	10500 fluorescence intensity (a.u.)
AGTTTTAAGGAGGGAGTTGATGGTGGGATTGGTCATGGGACGGAGTCACCTAGTGCAG	8620 fluorescence intensity (a.u.)
CGATCTCACCGCCGCATGCGCCATCTGAAGCCGTGCGCCCCGGAGTCACCTAGTGCAG	8150 fluorescence intensity (a.u.)
CCGTCTCCGCCAATCGCCGCGGCGAGGACCAGTGGTCCCTCGGAGTCACCTAGTGCAG	9610 fluorescence intensity (a.u.)
CATCGACTACCTGCCATTCTTCTACTCCAGGGTCTTCTCGCGGAGTCACCTAGTGCAG	9510 fluorescence intensity (a.u.)
TTCGGTTTGTCGTGATTTCATGCATCTCATGAGGTCCCAACGGAGTCACCTAGTGCAG	8040 fluorescence intensity (a.u.)
CTCTCCTGCCAAATACCACTCCATACCCGCGAAAAACGCTCGGAGTCACCTAGTGCAG	8370 fluorescence intensity (a.u.)
ACTTCCCTTGCAGATTGTCCATTTTTTTTCTGTTCGGAATCGGAGTCACCTAGTGCAG	10800 fluorescence intensity (a.u.)
TGTTTTTCATGTTGCATCTTTGGTAAAATAAATTTTGTAACGGAGTCACCTAGTGCAG	8640 fluorescence intensity (a.u.)
CCACGCCGCCCGCCACCGCCGCTCGCCATCGCCACCGTCGCGGAGTCACCTAGTGCAG	9580 fluorescence intensity (a.u.)
TGGTGCTCGTCCGGTCCAAATGTTGTCTGCCTTAGTGCCTCGGAGTCACCTAGTGCAG	8660 fluorescence intensity (a.u.)
CCGTAATCGGTTAGCCCGCAAACGAATCCCAGCCCAATTACGGAGTCACCTAGTGCAG	8630 fluorescence intensity (a.u.)
GGGGATTTTTTTTTCGGATCCAGAACGATCAGAGAGGGAGCGGAGTCACCTAGTGCAG	9300 fluorescence intensity (a.u.)

Sequence	binding signal
TTTTGCAATCATCTGTTTTACAATTGTATTCCTGTCAGAACGGAGTCACCTAGTGCAG	9300 fluorescence intensity (a.u.)
CTTCCACAAAGATTCGAATTTTCTTTTCGGTTTGGATCATCGGAGTCACCTAGTGCAG	9020 fluorescence intensity (a.u.)
AATTCTCCAAGCCCTGTGTTGCATCTGCATGCCATCTCATCGGAGTCACCTAGTGCAG	10900 fluorescence intensity (a.u.)
GTTCACTCTCCGACGACTTAATTGTGTGCGTGTTGTATTTCGGAGTCACCTAGTGCAG	12400 fluorescence intensity (a.u.)
AGGGACTCACCCTCTCCTCGCCTCGCCTCGCCTCGCTAACCGGAGTCACCTAGTGCAG	9380 fluorescence intensity (a.u.)
CGAGTGGGTTTAAACTCGAGTTGTTTTTTTGTTCGTTAATCGGAGTCACCTAGTGCAG	9680 fluorescence intensity (a.u.)
CTCCACTCTCCGCCGCCGCCGCGCCAACCTCCGAGCTCTGCGGAGTCACCTAGTGCAG	8820 fluorescence intensity (a.u.)
AACTAATTTCTTCTCTTTTTTTTGTCCTTTTTCTTTACAACGGAGTCACCTAGTGCAG	12300 fluorescence intensity (a.u.)
TGTGGTGGCGAGCGGCACGGAGGCGGGGCGGTGGAGGGAGCGGAGTCACCTAGTGCAG	9670 fluorescence intensity (a.u.)
ATCTCTGCCTTTTCATATTAATATTGATCTTGCTGCATTTCGGAGTCACCTAGTGCAG	10200 fluorescence intensity (a.u.)
GCAGAACTTTCACTGAATCAACAGAATTTCGGTCCTACCTCGGAGTCACCTAGTGCAG	8120 fluorescence intensity (a.u.)
CACGCTTATTTCTTCTCTCCTACCTCCGCTTCACCTTCACCGGAGTCACCTAGTGCAG	8800 fluorescence intensity (a.u.)
ATTACTTGTTTCATCCATATTGGGTCACTGTAATTTTCCTCGGAGTCACCTAGTGCAG	10800 fluorescence intensity (a.u.)
TTTCTTTTTATAAAACCTTTTCAACTTTGTTTATTTCTTCCGGAGTCACCTAGTGCAG	9530 fluorescence intensity (a.u.)
CTTGCGCCTCTTCGCTGATCCTCTTTTGTTCAGCGGCTGCCGGAGTCACCTAGTGCAG	10200 fluorescence intensity (a.u.)
TGCCACCTCAAGGACTCGCCCTTGTCGTCGCCTTCGCCATCGGAGTCACCTAGTGCAG	13400 fluorescence intensity (a.u.)
TTCACCCACGTTTCTGCCCAACCCTCTCACCCTAGCTTAGCGGAGTCACCTAGTGCAG	10800 fluorescence intensity (a.u.)
AGATTTATAGTACTTGCTCTAAGGTATTGGCTCTTACTACCGGAGTCACCTAGTGCAG	9080 fluorescence intensity (a.u.)
CTTTGCCAATCCTAACATTATCTTATTTTTGCAACAGTAACGGAGTCACCTAGTGCAG	11900 fluorescence intensity (a.u.)
CCTTGTCTAGTCCACTACACTACACTGCAATACGGCAATGCGGAGTCACCTAGTGCAG	8900 fluorescence intensity (a.u.)
TGACCAAATTTCAGTACGCCAACCATTTGCAGTTGTTTTTCGGAGTCACCTAGTGCAG	8270 fluorescence intensity (a.u.)

Another view of part of the listing above.
Sequence,binding signal
AACTAATTTCTTCTCTTTTTTTTGTCCTTTTTCTTTACAACGGAGTCACCTAGTGCAG,12300 fluorescence intensity (a.u.)
CTTGCGCCTCTTCGCTGATCCTCTTTTGTTCAGCGGCTGCCGGAGTCACCTAGTGCAG,10200 fluorescence intensity (a.u.)
CCTTGTCTAGTCCACTACACTACACTGCAATACGGCAATGCGGAGTCACCTAGTGCAG,8900 fluorescence intensity (a.u.)
